Data taken from the supplement of paper PMC8256030.
“And” between values parts separate entries of the source, which are not always exact repeats. Identical values can stand only once. Some of the results follow. Single values are uncertain here, since repeats match poorly.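 HEK293T cells were given each compound shortly before transfection with a reporter in which red mCherry is followed by the SARS-CoV-2 frameshift element and then GFP in the −1 frame, so GFP appears only after frameshifting.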

These compounds were tested on SARS-CoV-2 -1 PRF reporter mCherry-FSE-GFP(-1) (assay: mCherry (red) intensity as percent of control; higher = higher upstream reporter expression). Conditions: 10 µM; 24 h; HEK293T.

Compound | mCherry
CO/N=C(\C(=O)N[C@@H]1C(=O)N2C(C(=O)O)=C(CSc3nnnn3C)CS[C@H]12)c1csc(N)n1 [Cefmenoxime] | 72.6%
CCCCC(=O)O[C@]1(C(=O)CO)CC[C@H]2[C@@H]3CCC4=CC(=O)CC[C@]4(C)[C@H]3[C@@H](O)C[C@@]21C | 87.5%
CCCCc1ccc2[nH]c(NC(=O)OC)nc2c1 [parbendazole] | 77.6%
CC(=O)N(CC(O)CO)c1c(I)c(C(=O)NCCO)c(I)c(C(=O)NCC(O)CO)c1I (configuration not stated) [ioxilan] | 127%
COc1cc(-c2ccc(=O)[nH]n2)ccc1OC(F)F [zardaverine] | 103%
Cc1c(Nc2ncccc2C(=O)O)cccc1C(F)(F)F | 80.6%
O=C(/C=C/c1ccc2c(c1)OCO2)N1CCN(CC(=O)N2CCCC2)CC1 [cinoxopazide] | 80.3%
C[C@@H](O)[C@H]1C(=O)N2C(C(=O)O)=C(SCCN=CN)C[C@H]12 | 95.4%
CC(C)(Oc1ccccc1)C(=O)OCCN1CCOCC1 [promolate] | 105%
NC(N)=NS(=O)(=O)c1ccc(N)cc1 | 89%
CN1CCC(Nc2ncc3ncnc(Nc4ccc(F)c(Cl)c4)c3n2)CC1 [falnidamol] | 93.4%
O=c1[nH]c(=O)c2ccccc2o1 [carsalam] | 130%
COc1ccc(N(CCCC(=O)O)C(=O)c2ccc(Cl)cc2)cc1 [clanobutin] | 58.8%
CCCC1O[C@@H]2C[C@H]3[C@@H]4CCC5=CC(=O)C=C[C@]5(C)[C@H]4[C@@H](O)C[C@]3(C)[C@]2(C(=O)CO)O1 (some centres not stated) [budesonide] | 115%
CN(C)NC(=O)c1ccc(Cl)c(S(N)(=O)=O)c1 [alipamide] | 87.8%

Each compound was assayed on SARS-CoV-2 -1 PRF reporter mCherry-FSE-GFP(-1) (assay: percent effect, decrease of GFP/mCherry ratio (-1 PRF reporter) relative to controls; higher = stronger frameshift inhibition). Conditions: 10 µM; 24 h; HEK293T.

Compound | percent effect
O=C1/C(=C/c2cccs2)CCC/C1=C\c1cccs1 [tenylidone] | -5.67%
COc1cc2c3cc1Oc1cc(ccc1O)C[C@@H]1c4c(cc(OC)c(O)c4Oc4ccc(cc4)C[C@@H]3N(C)CC2)CC[N+]1(C)C [(+)-Tubocuraraine chloride] | 1.19%
C=COCC(F)(F)F [fluroxene] | -5.39%
CN1CCN(CCCN2c3ccccc3Sc3ccc(Cl)cc32)CC1 | 1.29%
OC(C1=NCCN1)(c1ccc(Cl)cc1)c1ccccn1 (configuration not stated) [dazadrol] | -8.4%
CN1CCC[C@@H]1Cc1c[nH]c2ccc(CCS(=O)(=O)c3ccccc3)cc12 [eletriptan] | -3.64%
CCC1(CC)COC(=O)NC1=O [diethadione] | -13.8%
CC(C)[C@@H]1NC(=O)[C@H](CCCCN)NC(=O)[C@@H](Cc2c[nH]c3ccccc23)NC(=O)[C@H](Cc2ccc(O)cc2)NC(=O)[C@H](C)N(C)C(=O)[C@H](Cc2ccccc2)NC1=O [seglitide] | -0.587%
CC[N+]1(CC)CCC(=C(c2ccccc2)c2ccccc2)C1C (configuration not stated) [prifinium bromide] | 1.51%
CO[C@H]1C[C@H](O[C@H]2[C@H](C)O[C@@H](O[C@@H]3/C(C)=C/C[C@@H]4C[C@@H](C[C@]5(C=C[C@H](C)[C@@H](C6CCCCC6)O5)O4)OC(=O)[C@@H]4C=C(C)[C@@H](O)[C@H]5OC/C(=C\C=C\[C@@H]3C)[C@]54O)C[C@@H]2OC)O[C@@H](C)[C@@H]1O | -1.54%
CCCCC1C(=O)N(c2ccccc2)N(c2ccccc2)C1=O [phenylbutazone] | -4.9% and -0.423%
CN1N=C2CCN(C(=O)[C@@H](COCc3ccccc3)NC(=O)C(C)(C)N)C[C@@]2(Cc2ccccc2)C1=O [capromorelin] | -2.36%
CCCCc1ccc(C(N)=O)nc1 [bupicomide] | 3.19%
Cn1c(NCCN(CCO)CCCc2ccc([N+](=O)[O-])cc2)cc(=O)n(C)c1=O [nifekalant] | -0.327%
NCCCC(O)(P(=O)(O)O)P(=O)(O)O | -2.71%
CCCCN(CCCC)CCC(O)c1cc2c(Cl)cc(Cl)cc2c2cc(C(F)(F)F)ccc12 (configuration not stated) [halofantrine] | 2.73%
NC(=O)CN1C(=O)COc2ccccc21 [paraxazone] | -3.41%
CC[C@H](c1ccc(O)cc1)[C@@H](CC)c1ccc(O)cc1 [hexestrol] | -3.29% and -4.83%
c1ccc(Cn2c(N3CCNCC3)nc3ccccc32)cc1 [lerisetron] | -10.5%
COc1ccnc(C[S+]([O-])c2nc3cc(OC(F)F)ccc3[nH]2)c1OC (configuration not stated) | 0.323%
COc1cc2c(cc1OC)-c1c/c(=N\c3c(C)cc(C)cc3C)n(C)c(=O)n1CC2 [trequinsin] | -4.22%
O=C(O)c1cn(C2CC2)c2cc(N3CCNCC3)c(F)cc2c1=O [ciprofloxacin] | -1.37% and 0.897%
